Data published in PubChem BioAssay AID504444 (National Center for Advancing Translational Sciences (NCATS), 2011).
Among all 360,000 compounds or so, about 7,500 (2.1%) were called active. Inconclusive means that the source gave no clear call. Such entries were picked first, then a sample of the others. Calls follow the shape of the dose curve; as a rule, active = well fitted inhibition curve with a large enough effect; inconclusive = small, poorly fitted or top-dose-only effect, or effect the other way; inactive = flat fitted curve, though single readings scatter. Potencies beside an inconclusive call are fits to weak or partial responses and may not hold up.

Assay: Nrf2 qHTS screen for inhibitors; also: nearly all actives have a fitted effect of over 60% in size
Details: A549 ARE-Fluc reporter, luciferase luminescence, 18-24 h; series mostly up to 46 µM
Method in brief: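 Quantitative HTS in A549 cells stably bearing an antioxidant response element-firefly luciferase construct. Inhibition of Nrf2-driven transcription was scored by luminescence after 18-24 h of compound exposure at 37 °C.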
Potency is read from the fitted curve at half-maximal effect.

Row | Compound | Potency
1 | O=C(NNC1=Nc2ccccc2SC1)c1ccccc1F | inconclusive: 7.31 µM [falling, partial curve, poor fit]
2 | Clc1ccc(-c2nn3cnnc3s2)c(Cl)c1 | inactive
3 | O=C(Nc1nnc(C2=COCCO2)o1)c1ccc(S(=O)(=O)N2CCCCC2)cc1 | inconclusive: 23.1 µM [falling, partial curve]
4 | CCCOc1ccc(C(=O)Nc2sc3c(c2C(=O)OCC)CCCCC3)cc1 | inconclusive: 6.51 µM [falling, single point]
5 | O=C(O)CCCCC1CCSS1 (centres undefined) | inconclusive: 32.6 µM [falling, partial curve, poor fit]
6 | COc1cccc(/C=N/NC(=O)c2nnn(-c3nonc3N)c2C(C)C)c1 | inconclusive: 29.1 µM [falling, single point]
7 | CCc1ccc(CNC(=O)C2CCN(C(=O)c3ccc(-n4ccc5ccccc54)s3)CC2)cc1 | inconclusive: 0.82 µM [falling, full curve, poor fit]
8 | Cc1nn(C)cc1CN(C)C(=O)c1nn2c(c1Br)NC(c1cccs1)CC2C(F)(F)F (centres undefined) | inactive
9 | Cc1ccccc1CS(=O)(=O)c1ncc(Cl)c(C(=O)Nc2nnc(C(C)C)s2)n1 | inactive
10 | Cc1oc(-c2cccc(Br)c2)nc1CSc1nc2ncccc2[nH]1 | inactive
11 | CCCCCCOc1ccc(/C(N)=N/O)cc1 | inconclusive: 29.1 µM [activator, single point]
12 | CCOc1ccc(CCNC(=O)Cn2nc(CC)n3c(cc4c(OC)cccc43)c2=O)cc1OCC | inconclusive: 1.84 µM [activator, full curve, poor fit]
13 | Cc1nn(CC(C)C(=O)N2CCN(S(=O)(=O)c3ccc(Cl)cc3)CC2)c(C)c1C (centres undefined) | inactive
14 | c1ccc(CSc2ccc(-c3cccnc3)nn2)cc1 | inconclusive: 8.2 µM [activator, partial curve]
15 | CC1CC(C)CN(c2ccc(-n3cnnn3)cc2[N+](=O)[O-])C1 (centres undefined) | inactive
16 | CCCN(CCC)CCCNC(=O)CNC(=O)c1nn(-c2ccc(OC)cc2)c(=O)c2ccccc12 | inconclusive: 10.3 µM [activator, partial curve, poor fit]
17 | CCOC(=O)COc1ccc(/C=C2/SC(=Nc3ccccc3)N(Cc3cccnc3)C2=O)cc1OC | inconclusive: 2.59 µM [activator, partial curve, poor fit]
18 | CCS(=O)(=O)c1ccc(O)c(NC(=O)COc2ccc(Br)cc2)c1 | inconclusive: 14.6 µM [falling, single point]
19 | N#C/C(=C\c1c(Oc2ccc(F)cc2)nc2ccccn2c1=O)c1nc2ccccc2s1 | inactive

Some of the entries so far, with each value named.
CCc1ccc(CNC(=O)C2CCN(C(=O)c3ccc(-n4ccc5ccccc54)s3)CC2)cc1
  Potency: inconclusive: 0.82 µM [falling, full curve, poor fit]
Cc1nn(CC(C)C(=O)N2CCN(S(=O)(=O)c3ccc(Cl)cc3)CC2)c(C)c1C (centres undefined)
  Potency: inactive
